Values from PubChem BioAssay AID1508597 (Cure First, 2020)

- Assay: 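Genes whose silencing sensitises or protects ovarian cancer cells against rucaparib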 (primary screen)
- Cell system: human ovarian carcinoma lines grown from tumours: OCI-P5x (papillary serous) and OCI-C5x (clear cell)
- Reagent: siRNA pool against human genes, 1.25 pmol siRNA per well
- Timing: 72 h or 96 h, depending on the cell culture
- Treatment: rucaparib 20 µM (about IC30) or vehicle, present until read-out
- Rucaparib or vehicle: Vehicle
- Cell line: OCI-C5x (clear cell)
- Read-out: 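ATP luminescence measured at 72 or 96 h according to the culture, then normalised and expressed as percent viability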
- Scale: viability, normalised: higher = more viable cells remaining
- Hit rule: 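a well counts as a hit if its normalised viability is under 80 percent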
- Calls: active = viability under 80%; inactive = viability 80% or more
Shown is an unselected part of the about 2,100 reagents, in one setting of the screen. 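Calls flag viability under 80% in either arm, not effects specific to rucaparib; the reference for percent is not stated.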 A reagent listed more than once was tested more than once; the source does not tell the runs apart. No sequences are given here. Not given: the 100% reference.

PHF2 (GeneID 5253), technical replicate 1 — viability, normalised (%) = 39.2; outcome = active
PHF2 (GeneID 5253), technical replicate 2 — viability, normalised (%) = 40.1; outcome = active
PHF2 (GeneID 5253), technical replicate 3 — viability, normalised (%) = 38.1; outcome = active
MAP3K9 (GeneID 4293), technical replicate 1 — viability, normalised (%) = 72.7; outcome = active
MAP3K9 (GeneID 4293), technical replicate 2 — viability, normalised (%) = 60; outcome = active
MAP3K9 (GeneID 4293), technical replicate 3 — viability, normalised (%) = 47.6; outcome = active
BRCA2 (GeneID 675), technical replicate 1 — viability, normalised (%) = 63.9; outcome = active
BRCA2 (GeneID 675), technical replicate 1 — viability, normalised (%) = 26.4; outcome = active
BRCA2 (GeneID 675), technical replicate 1 — viability, normalised (%) = 61.9; outcome = active
BRCA2 (GeneID 675), technical replicate 2 — viability, normalised (%) = 52; outcome = active
BRCA2 (GeneID 675), technical replicate 2 — viability, normalised (%) = 53.7; outcome = active
BRCA2 (GeneID 675), technical replicate 2 — viability, normalised (%) = 42.4; outcome = active
BRCA2 (GeneID 675), technical replicate 3 — viability, normalised (%) = 32.8; outcome = active
BRCA2 (GeneID 675), technical replicate 3 — viability, normalised (%) = 42.3; outcome = active
BRCA2 (GeneID 675), technical replicate 3 — viability, normalised (%) = 64.3; outcome = active
CHKA (GeneID 1119), technical replicate 1 — viability, normalised (%) = 58.4; outcome = active
CHKA (GeneID 1119), technical replicate 2 — viability, normalised (%) = 55.8; outcome = active
CHKA (GeneID 1119), technical replicate 3 — viability, normalised (%) = 60.9; outcome = active
NSD1 (GeneID 64324), technical replicate 1 — viability, normalised (%) = 50.3; outcome = active
NSD1 (GeneID 64324), technical replicate 2 — viability, normalised (%) = 38.4; outcome = active
NSD1 (GeneID 64324), technical replicate 3 — viability, normalised (%) = 42.4; outcome = active
